Reference: the supplement of paper PMC8728848
The list shows a part of the results.

Key:
Experiment in all cases: glycan array binding signal (z-score within array); higher = stronger binding
Settings in all cases: glycan notation: IUPAC condensed, linker removed
[1] = biological target: Gal(b1-4)GlcNAc(b1-3)Gal(b1-4)GlcNAc(b1-3)Gal(b1-4)GlcNAc(b1-3)Gal(b1-4)GlcNAc(b1-2)Man(a1-3)[Gal(b1-4)GlcNAc(b1-3)Gal(b1-4)GlcNAc(b1-3)Gal(b1-4)GlcNAc(b1-3)Gal(b1-4)GlcNAc(b1-2)Man(a1-6)]Man(b1-4)GlcNAc(b1-4)GlcNAc
Procedure, shortened: (§1)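 Glycan array data were curated from 3228 arrays in the Consortium for Functional Glycomics database and kept only where the protein sequence was available. Glycan names were converted to IUPAC-condensed notation, and columns mapping to the same glycan were averaged. The binding signal is a within-array Z-score, averaged across arrays of the same protein sequence at different concentrations or buffers and across linkers. Negative Z-scores can be read as non-binding.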

[2] = biological target: Gal(b1-4)GlcNAc(b1-3)Gal(b1-4)GlcNAc(b1-3)Gal(b1-4)GlcNAc(b1-3)Gal(b1-4)GlcNAc(b1-2)Man(a1-3)[Gal(b1-4)GlcNAc(b1-3)Gal(b1-4)GlcNAc(b1-3)Gal(b1-4)GlcNAc(b1-3)Gal(b1-4)GlcNAc(b1-2)Man(a1-6)]Man(b1-4)GlcNAc(b1-4)[Fuc(a1-6)]GlcNAc
Procedure, shortened: as §1

[3] = biological target: Gal(b1-4)GlcNAc(b1-3)Gal(b1-4)GlcNAc(b1-3)Gal(b1-4)GlcNAc(b1-3)Gal(b1-4)GlcNAc(b1-2)[Gal(b1-4)GlcNAc(b1-3)Gal(b1-4)GlcNAc(b1-3)Gal(b1-4)GlcNAc(b1-3)Gal(b1-4)GlcNAc(b1-6)]Man(a1-6)[Gal(b1-4)GlcNAc(b1-3)Gal(b1-4)GlcNAc(b1-3)Gal(b1-4)GlcNAc(b1-3)Gal(b1-4)GlcNAc(b1-2)Man(a1-3)]Man(b1-4)GlcNAc(b1-4)[Fuc(a1-6)]GlcNAc
Procedure, shortened: as §1

[4] = biological target: Gal(b1-4)GlcNAc(b1-3)Gal(b1-4)GlcNAc(b1-3)Gal(b1-4)GlcNAc(b1-3)Gal(b1-4)GlcNAc(b1-3)Gal(b1-4)GlcNAc(b1-2)Man(a1-3)[Gal(b1-4)GlcNAc(b1-3)Gal(b1-4)GlcNAc(b1-3)Gal(b1-4)GlcNAc(b1-3)Gal(b1-4)GlcNAc(b1-3)Gal(b1-4)GlcNAc(b1-2)Man(a1-6)]Man(b1-4)GlcNAc(b1-4)GlcNAc
Procedure, shortened: as §1

[5] = biological target: Gal(b1-4)GlcNAc(b1-3)Gal(b1-4)GlcNAc(b1-3)Gal(b1-4)GlcNAc(b1-3)Gal(b1-4)GlcNAc(b1-3)Gal(b1-4)GlcNAc(b1-2)Man(a1-3)[Gal(b1-4)GlcNAc(b1-3)Gal(b1-4)GlcNAc(b1-3)Gal(b1-4)GlcNAc(b1-3)Gal(b1-4)GlcNAc(b1-3)Gal(b1-4)GlcNAc(b1-2)Man(a1-6)]Man(b1-4)GlcNAc(b1-4)[Fuc(a1-6)]GlcNAc
Procedure, shortened: as §1

[6] = biological target: Gal(b1-4)GlcNAc(b1-3)Gal(b1-4)GlcNAc(b1-3)Gal(b1-4)GlcNAc(b1-3)Gal(b1-4)GlcNAc(b1-3)Gal(b1-4)GlcNAc(b1-2)[Gal(b1-4)GlcNAc(b1-3)Gal(b1-4)GlcNAc(b1-3)Gal(b1-4)GlcNAc(b1-3)Gal(b1-4)GlcNAc(b1-3)Gal(b1-4)GlcNAc(b1-6)]Man(a1-6)[Gal(b1-4)GlcNAc(b1-3)Gal(b1-4)GlcNAc(b1-3)Gal(b1-4)GlcNAc(b1-3)Gal(b1-4)GlcNAc(b1-3)Gal(b1-4)GlcNAc(b1-2)Man(a1-3)]Man(b1-4)GlcNAc(b1-4)[Fuc(a1-6)]GlcNAc
Procedure, shortened: as §1

[7] = biological target: Gal(b1-4)GlcNAc(b1-3)Gal(b1-4)GlcNAc(b1-3)Gal(b1-4)GlcNAc(b1-3)Gal(b1-4)GlcNAc(b1-3)Gal(b1-4)GlcNAc(b1-3)Gal(b1-4)GlcNAc(b1-2)Man(a1-3)[Gal(b1-4)GlcNAc(b1-3)Gal(b1-4)GlcNAc(b1-3)Gal(b1-4)GlcNAc(b1-3)Gal(b1-4)GlcNAc(b1-3)Gal(b1-4)GlcNAc(b1-3)Gal(b1-4)GlcNAc(b1-2)Man(a1-6)]Man(b1-4)GlcNAc(b1-4)GlcNAc
Procedure, shortened: as §1

[8] = biological target: Gal(b1-4)GlcNAc(b1-3)Gal(b1-4)GlcNAc(b1-3)GalNAc
Procedure, shortened: as §1

[9] = biological target: Gal(b1-4)GlcNAc(b1-3)Gal(b1-4)GlcNAc(b1-3)[Gal(b1-4)GlcNAc(b1-3)Gal(b1-4)GlcNAc(b1-6)]GalNAc
Procedure, shortened: as §1

[10] = biological target: Gal(b1-4)GlcNAc(b1-3)Gal(b1-4)GlcNAc(b1-6)[Gal(b1-3)]GalNAc
Procedure, shortened: as §1

[11] = biological target: Gal(b1-4)GlcNAc(b1-3)Gal(b1-4)[Fuc(a1-3)]GlcNAc(b1-3)Gal(b1-4)[Fuc(a1-3)]GlcNAc
Procedure, shortened: as §1

[12] = biological target: Gal(b1-4)GlcNAc(b1-3)GalNAc
Procedure, shortened: as §1

[13] = biological target: Gal(b1-4)GlcNAc(b1-3)[Fuc(a1-3)GlcNAc(b1-6)]Gal(b1-4)Glc
Procedure, shortened: as §1

[14] = biological target: Gal(b1-4)GlcNAc(b1-3)[Gal(b1-4)GlcNAc(b1-6)]Gal(b1-4)GlcNAc
Procedure, shortened: as §1

[15] = biological target: Gal(b1-4)GlcNAc(b1-3)[GlcNAc(b1-6)]Gal(b1-4)GlcNAc
Procedure, shortened: as §1

[16] = biological target: Gal(b1-4)GlcNAc(b1-6)Gal(b1-4)GlcNAc
Procedure, shortened: as §1

[17] = biological target: Gal(b1-4)GlcNAc(b1-6)GalNAc
Procedure, shortened: as §1

[18] = biological target: Gal(b1-4)GlcNAc(b1-6)[Gal(b1-3)]GalNAc
Procedure, shortened: as §1

[19] = biological target: Gal(b1-4)GlcNAc(b1-6)[Gal(b1-4)GlcNAc(b1-3)]GalNAc
Procedure, shortened: as §1

Gal(b1-4)GlcNAc6P = biological target: Gal(b1-4)GlcNAc6P
Procedure, shortened: as §1

Gal(b1-6)Gal = biological target: Gal(b1-6)Gal
Procedure, shortened: as §1

Gal3S(b1-3)GalNAc = biological target: Gal3S(b1-3)GalNAc
Procedure, shortened: as §1

Gal3S(b1-3)GlcNAc = biological target: Gal3S(b1-3)GlcNAc
Procedure, shortened: as §1

[20] = biological target: Gal3S(b1-3)[Fuc(a1-4)]GlcNAc
Procedure, shortened: as §1

Gal3S(b1-4)Glc = biological target: Gal3S(b1-4)Glc
Procedure, shortened: as §1

Gal3S(b1-4)Glc6S = biological target: Gal3S(b1-4)Glc6S
Procedure, shortened: as §1

Gal3S(b1-4)GlcNAc = biological target: Gal3S(b1-4)GlcNAc
Procedure, shortened: as §1

[21] = biological target: Gal3S(b1-4)[Fuc(a1-3)]Glc6S
Procedure, shortened: as §1

[22] = biological target: Gal3S(b1-4)[Fuc(a1-3)]GlcNAc
Procedure, shortened: as §1

[23] = biological target: Gal3S(b1-4)[Fuc(a1-3)]GlcNAc6S
Procedure, shortened: as §1

Gal3S4S(b1-4)GlcNAc = biological target: Gal3S4S(b1-4)GlcNAc
Procedure, shortened: as §1

Gal3S6S(b1-4)GlcNAc = biological target: Gal3S6S(b1-4)GlcNAc
Procedure, shortened: as §1

Gal3S6S(b1-4)GlcNAc6S = biological target: Gal3S6S(b1-4)GlcNAc6S
Procedure, shortened: as §1

Gal4S(b1-4)GlcNAc = biological target: Gal4S(b1-4)GlcNAc
Procedure, shortened: as §1

Gal4S6S(b1-4)GlcNAc = biological target: Gal4S6S(b1-4)GlcNAc
Procedure, shortened: as §1

Gal6P(b1-4)GlcNAc = biological target: Gal6P(b1-4)GlcNAc
Procedure, shortened: as §1

Gal6S(b1-3)GlcNAc = biological target: Gal6S(b1-3)GlcNAc
Procedure, shortened: as §1

Gal6S(b1-3)GlcNAc6S = biological target: Gal6S(b1-3)GlcNAc6S
Procedure, shortened: as §1

B1: LlpA (Arthrobacter sp) (protein)
chain: MGSSHHHHHHSSGLVPRGSHMTLHPETALRPGAAATSPNSRYRLLYQTDGNLVLYGPDGPLWDSGTNGHGAGACIMQADGNLVLYGPNDEYVWDTETDNNPGSRLVIQDDGNAVIYRPDGSPLWATETCQPPGSADSHVLQSGSTLTPTHGIRSANGLYGLLYQTDGNLVFYGPDGPLWDSGTNGRGAGACIMQPDGNLVLYGPHDEYVWDTETDNNPGSRLVIQDDGNAVIYRPDGNPTWVTGTH
glycan array binding signal (z-score) [1]: -0.527 | glycan array binding signal (z-score) [2]: 0.397 | glycan array binding signal (z-score) [3]: 0.965 | glycan array binding signal (z-score) [4]: 0.263 | glycan array binding signal (z-score) [5]: 0.321 | glycan array binding signal (z-score) [6]: 0.85 | glycan array binding signal (z-score) [7]: 0.466 | glycan array binding signal (z-score) [8]: 0.576 | glycan array binding signal (z-score) [9]: 0.982 | glycan array binding signal (z-score) [10]: -0.736 | glycan array binding signal (z-score) [11]: 0.34 | glycan array binding signal (z-score) [12]: -0.295 | glycan array binding signal (z-score) [13]: -0.387 | glycan array binding signal (z-score) [14]: -1.1 | glycan array binding signal (z-score) [15]: -0.412 | glycan array binding signal (z-score) [16]: -0.058 | glycan array binding signal (z-score) [17]: 0.615 | glycan array binding signal (z-score) [18]: -0.352 | glycan array binding signal (z-score) [19]: -0.482 | glycan array binding signal (z-score) (Gal(b1-4)GlcNAc6P): 0.159 | glycan array binding signal (z-score) (Gal(b1-6)Gal): 0.799 | glycan array binding signal (z-score) (Gal3S(b1-3)GalNAc): 0.802 | glycan array binding signal (z-score) (Gal3S(b1-3)GlcNAc): 0.062 | glycan array binding signal (z-score) [20]: 0.465 | glycan array binding signal (z-score) (Gal3S(b1-4)Glc): 0.471 | glycan array binding signal (z-score) (Gal3S(b1-4)Glc6S): -0.898 | glycan array binding signal (z-score) (Gal3S(b1-4)GlcNAc): -0.268 | glycan array binding signal (z-score) [21]: 2.1 | glycan array binding signal (z-score) [22]: 0.763 | glycan array binding signal (z-score) [23]: 0.519 | glycan array binding signal (z-score) (Gal3S4S(b1-4)GlcNAc): -0.442 | glycan array binding signal (z-score) (Gal3S6S(b1-4)GlcNAc): 1.11 | glycan array binding signal (z-score) (Gal3S6S(b1-4)GlcNAc6S): 0.499 | glycan array binding signal (z-score) (Gal4S(b1-4)GlcNAc): -0.524 | glycan array binding signal (z-score) (Gal4S6S(b1-4)GlcNAc): -1.12 | glycan array binding signal (z-score) (Gal6P(b1-4)GlcNAc): -0.946 | glycan array binding signal (z-score) (Gal6S(b1-3)GlcNAc): 0.643 | glycan array binding signal (z-score) (Gal6S(b1-3)GlcNAc6S): 0.386
